Source: paper PMC11294625, “The kinesin-3 KIF1C undergoes liquid-liquid phase separation for accumulation of specific transcripts at the cell periphery”
For at least one entry, the source does not settle the construct or the ends of the probe. Weaker means in comparison with the reference protein, sequence or condition of that experiment. At least one verdict was read from the data and is not stated in words by the source. Protein sequences can lack the tags named with them.

Target: T1, KIF1C(CC4+IDR)-mNG (Homo sapiens) (UniProt O43896)
T1 sequence (looked up): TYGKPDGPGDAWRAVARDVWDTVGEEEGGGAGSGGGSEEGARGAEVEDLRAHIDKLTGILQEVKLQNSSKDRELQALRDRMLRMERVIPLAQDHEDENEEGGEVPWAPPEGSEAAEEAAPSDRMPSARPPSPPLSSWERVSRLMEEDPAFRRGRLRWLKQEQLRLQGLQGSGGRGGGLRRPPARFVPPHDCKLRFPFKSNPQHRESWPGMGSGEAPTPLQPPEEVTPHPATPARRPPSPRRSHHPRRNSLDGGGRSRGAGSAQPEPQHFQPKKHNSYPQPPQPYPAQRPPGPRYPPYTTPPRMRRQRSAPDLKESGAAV
Assay: in vitro condensate recruitment (fluorescence microscopy)
Details: 15-60 nM RNA, 100 nM protein, 100 mM NaCl, only GU-rich selectively enriched; methylation at each nucleotide (printed mA, probably 2'-O-methyl); 100 nM KIF1C(CC4+IDR)-mNG in 100 mM NaCl buffer, no crowding agent; recombinant protein; residues 785-1103; protein details: C-terminal mNeonGreen, His-SUMO removed by TEV; label: 5'-Cy5

AAAAAAAAAAAAA [polyA RNA oligo, Cy5-A13]
binding result: binds more weakly
